Results are given in words; binding and its absence hold for the method and conditions named. In cells and extracts the contact can be indirect. For some of these results: Binding calls can cover weak binding; strength is not graded here. Sequences can lack the tags named with a protein.
Key:
Assay in all cases: pull-down; HEK293T cotransfected with GST or GST-BAG5 constructs and HA-Akt, HA-Erk, EGFP-Akt-KDD or EGFP-Hsp70; TNTE lysate, glutathione Sepharose 4B beads 2 h at 4 °C, blots with anti-HA or anti-GFP; for the Hsp70 experiment cells 12 h in serum-free media, then 20 μM MG132 for 4 h
[1] = target: T1, GST-BAG5 (full-length BAG5 fused to GST) (human) (UniProt Q9UL15)
T1 sequence: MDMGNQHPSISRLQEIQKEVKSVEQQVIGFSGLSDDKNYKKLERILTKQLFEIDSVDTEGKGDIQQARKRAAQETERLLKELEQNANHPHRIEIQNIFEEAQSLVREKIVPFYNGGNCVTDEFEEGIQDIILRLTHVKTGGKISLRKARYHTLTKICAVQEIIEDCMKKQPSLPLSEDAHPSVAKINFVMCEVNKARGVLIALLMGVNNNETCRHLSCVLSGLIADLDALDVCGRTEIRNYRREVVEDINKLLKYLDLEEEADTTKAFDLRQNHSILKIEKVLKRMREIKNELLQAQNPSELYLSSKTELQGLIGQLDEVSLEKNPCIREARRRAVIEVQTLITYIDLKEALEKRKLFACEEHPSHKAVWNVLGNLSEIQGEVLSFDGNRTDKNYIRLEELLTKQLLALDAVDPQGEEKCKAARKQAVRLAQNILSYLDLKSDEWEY

[2] = target: T2, GST-BAG5 N87-Y447 (linker region extended to the carboxyl terminus, with the last three BAG domains) (human) (UniProt Q9UL15)
T2 sequence: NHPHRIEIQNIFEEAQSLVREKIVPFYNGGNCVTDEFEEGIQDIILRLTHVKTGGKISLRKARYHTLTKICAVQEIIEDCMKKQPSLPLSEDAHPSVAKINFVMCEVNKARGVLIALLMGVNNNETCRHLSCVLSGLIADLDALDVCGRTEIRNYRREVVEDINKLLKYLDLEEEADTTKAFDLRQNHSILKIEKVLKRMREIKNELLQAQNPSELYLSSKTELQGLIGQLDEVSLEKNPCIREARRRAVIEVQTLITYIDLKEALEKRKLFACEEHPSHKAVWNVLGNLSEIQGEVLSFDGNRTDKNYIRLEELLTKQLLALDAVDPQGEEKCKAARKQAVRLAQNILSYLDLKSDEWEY

[3] = target: T3, GST-BAG5 M1-P181 (linker region extended to the amino terminus, with the first BAG domain) (human) (UniProt Q9UL15)
T3 sequence: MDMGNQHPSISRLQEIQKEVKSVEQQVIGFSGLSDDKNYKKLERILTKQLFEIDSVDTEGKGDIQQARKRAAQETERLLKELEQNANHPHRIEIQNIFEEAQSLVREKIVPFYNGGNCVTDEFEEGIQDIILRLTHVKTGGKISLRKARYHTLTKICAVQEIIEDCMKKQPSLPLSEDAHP

[4] = target: T4, GST-BAG5(N87-P181), BAG5 linker region fused to GST (human) (UniProt Q9UL15)
T4 sequence: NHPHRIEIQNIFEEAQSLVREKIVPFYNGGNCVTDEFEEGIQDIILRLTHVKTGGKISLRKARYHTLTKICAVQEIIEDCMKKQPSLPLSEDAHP

Substance | binding [1] | binding [2] | binding [3] | binding [4]
EGFP-Hsp70 | binds | – | – | –
HA-Erk (HA-tagged Erk) (enzyme) | – | no binding | no binding | no binding

— article PMC10743781
